No constants are given. Whether binding was seen depends on the method and setting. Binding seen in cells or lysates may run through a third protein. A yes stands for co-enrichment or nearness to the bait. Other partners may have been found.
Target: Vir-like m6A methyltransferase-associated (KIAA1429) protein, endogenous (human (endogenous in SW480, WiDr, HEK293T)) (UniProt Q69YN4)
Assay: affinity purification with mass spectrometry; immunoprecipitation of KIAA1429 from cell lysate (SW480 named for the importin α5 hit), LC-MS of the precipitate; hits filtered by p < 0.05

Chains of the proteins cited; added tags and fusions are not shown.
UniProt Q69YN4: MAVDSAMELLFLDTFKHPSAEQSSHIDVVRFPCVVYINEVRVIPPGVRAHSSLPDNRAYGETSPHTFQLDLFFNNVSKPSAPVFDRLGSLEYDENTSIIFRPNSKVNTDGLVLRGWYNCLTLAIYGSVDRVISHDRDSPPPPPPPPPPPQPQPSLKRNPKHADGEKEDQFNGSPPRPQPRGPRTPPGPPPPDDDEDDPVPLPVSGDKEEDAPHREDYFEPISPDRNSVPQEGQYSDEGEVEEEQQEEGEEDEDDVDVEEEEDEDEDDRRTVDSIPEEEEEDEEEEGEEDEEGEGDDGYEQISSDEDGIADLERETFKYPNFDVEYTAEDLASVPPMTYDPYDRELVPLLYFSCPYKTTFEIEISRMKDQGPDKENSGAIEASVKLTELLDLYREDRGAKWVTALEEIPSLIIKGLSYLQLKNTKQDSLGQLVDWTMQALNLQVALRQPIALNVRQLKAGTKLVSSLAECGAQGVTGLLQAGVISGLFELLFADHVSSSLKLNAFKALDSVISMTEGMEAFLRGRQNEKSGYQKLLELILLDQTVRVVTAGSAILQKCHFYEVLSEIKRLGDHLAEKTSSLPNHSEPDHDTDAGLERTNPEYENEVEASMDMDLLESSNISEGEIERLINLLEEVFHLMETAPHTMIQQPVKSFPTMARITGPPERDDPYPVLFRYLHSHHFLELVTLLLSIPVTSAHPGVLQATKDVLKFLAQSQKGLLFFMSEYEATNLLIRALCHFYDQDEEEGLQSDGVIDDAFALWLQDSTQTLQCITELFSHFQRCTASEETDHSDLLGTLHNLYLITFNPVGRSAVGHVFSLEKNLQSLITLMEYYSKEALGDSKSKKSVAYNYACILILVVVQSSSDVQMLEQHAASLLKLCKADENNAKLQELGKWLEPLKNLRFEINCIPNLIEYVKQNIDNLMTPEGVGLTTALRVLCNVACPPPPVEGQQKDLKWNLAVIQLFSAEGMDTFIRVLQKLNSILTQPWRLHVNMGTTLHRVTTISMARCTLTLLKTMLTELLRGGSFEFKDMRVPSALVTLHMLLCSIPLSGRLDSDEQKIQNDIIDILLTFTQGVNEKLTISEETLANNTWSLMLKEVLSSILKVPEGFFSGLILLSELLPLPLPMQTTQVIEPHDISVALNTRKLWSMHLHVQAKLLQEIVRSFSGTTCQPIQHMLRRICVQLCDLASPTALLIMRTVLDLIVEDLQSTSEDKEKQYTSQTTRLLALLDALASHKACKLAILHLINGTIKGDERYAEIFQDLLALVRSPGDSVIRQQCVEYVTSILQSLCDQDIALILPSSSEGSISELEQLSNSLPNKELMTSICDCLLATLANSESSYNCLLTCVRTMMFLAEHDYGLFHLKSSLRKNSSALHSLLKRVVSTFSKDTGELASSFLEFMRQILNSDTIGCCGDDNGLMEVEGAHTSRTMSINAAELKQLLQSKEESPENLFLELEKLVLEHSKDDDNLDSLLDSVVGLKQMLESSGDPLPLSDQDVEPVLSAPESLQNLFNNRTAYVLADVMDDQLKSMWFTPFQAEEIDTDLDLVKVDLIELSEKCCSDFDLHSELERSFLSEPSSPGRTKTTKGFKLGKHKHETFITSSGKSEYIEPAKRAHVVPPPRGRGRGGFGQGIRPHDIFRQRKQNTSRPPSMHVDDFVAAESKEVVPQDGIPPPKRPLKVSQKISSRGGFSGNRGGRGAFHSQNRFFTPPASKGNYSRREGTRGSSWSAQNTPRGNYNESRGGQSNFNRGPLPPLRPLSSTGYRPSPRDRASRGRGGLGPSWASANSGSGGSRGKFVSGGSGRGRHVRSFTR
UniProt P15056: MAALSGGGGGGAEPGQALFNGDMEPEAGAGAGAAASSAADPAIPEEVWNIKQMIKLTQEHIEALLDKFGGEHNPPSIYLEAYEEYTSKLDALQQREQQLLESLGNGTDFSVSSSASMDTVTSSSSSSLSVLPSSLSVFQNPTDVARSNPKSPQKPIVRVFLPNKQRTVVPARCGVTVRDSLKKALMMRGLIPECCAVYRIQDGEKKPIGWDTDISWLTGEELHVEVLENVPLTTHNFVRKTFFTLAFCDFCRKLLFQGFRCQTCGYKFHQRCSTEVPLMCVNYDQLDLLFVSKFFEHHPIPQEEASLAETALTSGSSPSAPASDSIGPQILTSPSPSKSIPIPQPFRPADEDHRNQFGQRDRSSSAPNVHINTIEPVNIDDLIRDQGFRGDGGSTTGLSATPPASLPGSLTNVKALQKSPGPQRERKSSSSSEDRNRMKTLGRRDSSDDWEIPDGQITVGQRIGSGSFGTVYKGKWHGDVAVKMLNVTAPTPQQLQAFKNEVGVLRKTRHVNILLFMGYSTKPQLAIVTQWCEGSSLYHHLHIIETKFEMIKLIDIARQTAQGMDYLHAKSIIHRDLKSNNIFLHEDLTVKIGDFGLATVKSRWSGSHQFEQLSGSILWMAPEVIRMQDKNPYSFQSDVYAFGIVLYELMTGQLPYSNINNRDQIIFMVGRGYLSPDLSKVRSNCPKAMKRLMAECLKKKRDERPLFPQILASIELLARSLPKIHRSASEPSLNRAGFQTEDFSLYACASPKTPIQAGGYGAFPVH
UniProt P52294: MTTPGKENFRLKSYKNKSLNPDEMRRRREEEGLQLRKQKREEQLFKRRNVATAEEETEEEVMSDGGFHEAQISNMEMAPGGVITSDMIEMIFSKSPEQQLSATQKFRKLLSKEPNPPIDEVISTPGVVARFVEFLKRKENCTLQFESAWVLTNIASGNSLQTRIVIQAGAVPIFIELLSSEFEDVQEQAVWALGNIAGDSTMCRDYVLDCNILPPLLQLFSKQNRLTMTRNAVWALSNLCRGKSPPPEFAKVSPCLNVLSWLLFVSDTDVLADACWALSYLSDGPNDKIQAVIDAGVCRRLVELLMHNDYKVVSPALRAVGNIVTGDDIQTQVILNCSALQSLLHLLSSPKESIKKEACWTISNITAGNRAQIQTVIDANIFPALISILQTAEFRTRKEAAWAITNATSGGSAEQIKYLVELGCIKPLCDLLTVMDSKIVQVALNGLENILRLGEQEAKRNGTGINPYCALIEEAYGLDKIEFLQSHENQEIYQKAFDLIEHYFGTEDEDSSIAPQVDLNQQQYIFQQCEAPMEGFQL

binding	Substance
binds	BRAF, endogenous in SW480 cells (from UniProt P15056 1-766) (enzyme)
binds	importin α5, endogenous (from UniProt P52294 1-538)

Reference: paper PMC12225155
